Results as given in the M2OR odorant receptor database.
This is a selection; strong and weak results do not stand in their true shares. Calls are pooled over several reports, among them a noisy single-well screen. Some of the results follow.

By UniProt entry, the sequences of proteins in these tests, tags left out. Chains listed by the source or under a name are the forms on record and can include a tag or linker.
UniProt A2ASV2, as listed by the source: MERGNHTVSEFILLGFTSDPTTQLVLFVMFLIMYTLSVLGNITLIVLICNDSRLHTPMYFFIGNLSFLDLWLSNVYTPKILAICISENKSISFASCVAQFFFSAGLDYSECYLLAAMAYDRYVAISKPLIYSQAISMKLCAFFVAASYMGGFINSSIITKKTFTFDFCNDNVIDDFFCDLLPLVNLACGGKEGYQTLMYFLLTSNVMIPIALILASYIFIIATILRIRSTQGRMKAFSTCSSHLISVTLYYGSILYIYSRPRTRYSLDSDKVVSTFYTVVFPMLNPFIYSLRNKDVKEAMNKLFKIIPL
UniProt A2AVA9, as listed by the source: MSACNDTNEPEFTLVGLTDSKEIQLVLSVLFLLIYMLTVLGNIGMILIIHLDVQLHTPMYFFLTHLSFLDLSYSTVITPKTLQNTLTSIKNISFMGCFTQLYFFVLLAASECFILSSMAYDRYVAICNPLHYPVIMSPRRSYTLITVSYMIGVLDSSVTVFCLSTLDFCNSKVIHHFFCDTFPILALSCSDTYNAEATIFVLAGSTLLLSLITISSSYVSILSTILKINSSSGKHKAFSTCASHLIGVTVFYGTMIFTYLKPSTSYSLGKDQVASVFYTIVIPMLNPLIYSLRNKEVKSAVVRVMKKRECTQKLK
UniProt A2AVC3, as listed by the source: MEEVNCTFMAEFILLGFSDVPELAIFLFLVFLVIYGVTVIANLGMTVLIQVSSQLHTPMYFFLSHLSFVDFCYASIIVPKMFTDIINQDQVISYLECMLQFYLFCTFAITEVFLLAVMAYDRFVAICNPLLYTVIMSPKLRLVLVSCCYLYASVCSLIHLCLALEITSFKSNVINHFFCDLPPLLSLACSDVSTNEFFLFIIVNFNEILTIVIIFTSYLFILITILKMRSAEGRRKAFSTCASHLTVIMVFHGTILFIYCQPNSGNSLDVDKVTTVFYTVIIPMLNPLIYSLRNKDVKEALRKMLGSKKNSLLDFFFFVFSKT
UniProt E9PXH6, as listed by the source: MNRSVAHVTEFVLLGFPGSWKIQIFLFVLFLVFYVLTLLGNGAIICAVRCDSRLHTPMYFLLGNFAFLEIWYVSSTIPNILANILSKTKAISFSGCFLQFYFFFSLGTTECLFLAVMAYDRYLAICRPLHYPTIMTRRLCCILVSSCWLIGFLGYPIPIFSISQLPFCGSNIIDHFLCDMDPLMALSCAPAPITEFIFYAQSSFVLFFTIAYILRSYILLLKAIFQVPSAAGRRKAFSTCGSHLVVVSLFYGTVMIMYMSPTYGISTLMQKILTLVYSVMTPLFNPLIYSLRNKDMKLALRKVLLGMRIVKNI
UniProt D1MFA5, as listed by the source: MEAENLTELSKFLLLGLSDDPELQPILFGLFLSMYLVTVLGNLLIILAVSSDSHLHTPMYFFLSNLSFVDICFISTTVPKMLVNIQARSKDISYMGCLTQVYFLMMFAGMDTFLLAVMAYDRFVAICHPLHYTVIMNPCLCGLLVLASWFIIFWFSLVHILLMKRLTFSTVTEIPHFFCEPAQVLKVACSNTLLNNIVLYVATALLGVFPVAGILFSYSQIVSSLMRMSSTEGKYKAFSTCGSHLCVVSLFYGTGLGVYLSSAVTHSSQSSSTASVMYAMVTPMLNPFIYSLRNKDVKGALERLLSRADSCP

Tests used:
Details in all cases: stereoisomer not certain
UniProt A2ATE5 = target: T1, UniProt A2ATE5
T1 sequence (whole entry): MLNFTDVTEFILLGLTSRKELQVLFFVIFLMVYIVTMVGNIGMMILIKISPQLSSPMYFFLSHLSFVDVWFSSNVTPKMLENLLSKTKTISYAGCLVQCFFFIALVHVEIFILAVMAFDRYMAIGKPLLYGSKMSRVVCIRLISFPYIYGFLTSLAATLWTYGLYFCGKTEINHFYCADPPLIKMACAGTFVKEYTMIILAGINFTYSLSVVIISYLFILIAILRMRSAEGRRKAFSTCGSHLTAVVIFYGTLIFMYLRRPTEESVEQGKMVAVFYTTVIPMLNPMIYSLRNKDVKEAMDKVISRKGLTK
Summary of the method: (§1)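 Each receptor–molecule pair is labelled responsive or non-responsive (inactive) according to whether the original authors judged the measured signal statistically different from baseline. The data were taken from the main text and supplementary material of published papers and checked for typos and inconsistencies. Assay methods differed by source, with transient luciferase assays in mammalian cell lines being common.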

UniProt A2AVB0 = target: T2, UniProt A2AVB0
T2 sequence (whole entry): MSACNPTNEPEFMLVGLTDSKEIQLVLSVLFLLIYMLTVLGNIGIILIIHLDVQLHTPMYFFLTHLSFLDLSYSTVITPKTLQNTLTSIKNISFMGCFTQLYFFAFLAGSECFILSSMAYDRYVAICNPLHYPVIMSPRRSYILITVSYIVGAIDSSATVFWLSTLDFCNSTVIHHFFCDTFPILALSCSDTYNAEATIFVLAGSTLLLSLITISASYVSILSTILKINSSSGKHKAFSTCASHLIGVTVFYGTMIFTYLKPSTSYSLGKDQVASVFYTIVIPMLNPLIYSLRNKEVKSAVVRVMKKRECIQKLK
Summary of the method: as §1

UniProt A2AVB5 = target: T3, UniProt A2AVB5
T3 sequence (whole entry): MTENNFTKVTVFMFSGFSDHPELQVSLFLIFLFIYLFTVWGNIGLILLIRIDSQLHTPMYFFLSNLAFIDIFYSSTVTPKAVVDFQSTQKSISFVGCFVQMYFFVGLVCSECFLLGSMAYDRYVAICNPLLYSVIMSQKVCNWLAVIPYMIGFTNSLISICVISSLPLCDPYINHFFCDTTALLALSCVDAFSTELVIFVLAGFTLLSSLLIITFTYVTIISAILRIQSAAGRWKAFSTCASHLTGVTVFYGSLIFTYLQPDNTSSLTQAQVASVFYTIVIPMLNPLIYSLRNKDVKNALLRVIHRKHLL
Summary of the method: as §1

UniProt B2RVX8 = target: T4, UniProt B2RVX8
T4 sequence (whole entry): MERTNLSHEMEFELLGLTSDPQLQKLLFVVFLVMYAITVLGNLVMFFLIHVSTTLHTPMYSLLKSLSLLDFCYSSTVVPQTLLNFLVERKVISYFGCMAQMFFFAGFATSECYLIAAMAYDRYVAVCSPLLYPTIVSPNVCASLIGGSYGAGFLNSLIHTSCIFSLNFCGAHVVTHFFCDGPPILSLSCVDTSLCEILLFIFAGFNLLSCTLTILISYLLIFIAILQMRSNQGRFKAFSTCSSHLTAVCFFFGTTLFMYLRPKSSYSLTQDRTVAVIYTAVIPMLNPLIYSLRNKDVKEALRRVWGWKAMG
Summary of the method: as §1

UniProt E9PVX1 = target: T5, UniProt E9PVX1
T5 sequence (whole entry): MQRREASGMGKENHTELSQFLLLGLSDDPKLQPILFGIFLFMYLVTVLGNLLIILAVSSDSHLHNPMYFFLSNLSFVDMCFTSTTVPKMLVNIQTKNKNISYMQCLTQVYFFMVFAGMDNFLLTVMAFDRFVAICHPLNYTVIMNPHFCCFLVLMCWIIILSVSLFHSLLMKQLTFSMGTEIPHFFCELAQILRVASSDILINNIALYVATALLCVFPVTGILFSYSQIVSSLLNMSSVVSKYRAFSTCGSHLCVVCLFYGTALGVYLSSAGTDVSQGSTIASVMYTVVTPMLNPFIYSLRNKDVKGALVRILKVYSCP
Summary of the method: as §1

UniProt E9PX47 = target: T6, UniProt E9PX47
T6 sequence (whole entry): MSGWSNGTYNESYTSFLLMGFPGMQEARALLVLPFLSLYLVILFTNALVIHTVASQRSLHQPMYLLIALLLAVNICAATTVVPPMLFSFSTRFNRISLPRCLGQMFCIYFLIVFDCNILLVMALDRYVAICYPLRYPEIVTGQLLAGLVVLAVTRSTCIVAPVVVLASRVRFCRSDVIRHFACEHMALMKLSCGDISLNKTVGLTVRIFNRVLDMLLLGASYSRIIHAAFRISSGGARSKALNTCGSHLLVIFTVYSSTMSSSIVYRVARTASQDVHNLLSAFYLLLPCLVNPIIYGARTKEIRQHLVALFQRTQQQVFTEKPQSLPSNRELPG
Summary of the method: as §1

UniProt E9PXN3 = target: T7, UniProt E9PXN3
T7 sequence (whole entry): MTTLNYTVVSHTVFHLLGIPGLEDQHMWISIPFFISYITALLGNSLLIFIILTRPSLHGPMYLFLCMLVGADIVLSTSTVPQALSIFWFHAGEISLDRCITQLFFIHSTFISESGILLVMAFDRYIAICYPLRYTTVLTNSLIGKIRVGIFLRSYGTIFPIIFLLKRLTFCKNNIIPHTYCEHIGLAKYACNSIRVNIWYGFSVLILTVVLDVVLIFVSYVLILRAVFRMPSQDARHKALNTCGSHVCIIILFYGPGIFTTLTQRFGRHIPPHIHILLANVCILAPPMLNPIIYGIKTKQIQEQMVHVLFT
Summary of the method: as §1

UniProt E9PZ66 = target: T8, UniProt E9PZ66
T8 sequence (whole entry): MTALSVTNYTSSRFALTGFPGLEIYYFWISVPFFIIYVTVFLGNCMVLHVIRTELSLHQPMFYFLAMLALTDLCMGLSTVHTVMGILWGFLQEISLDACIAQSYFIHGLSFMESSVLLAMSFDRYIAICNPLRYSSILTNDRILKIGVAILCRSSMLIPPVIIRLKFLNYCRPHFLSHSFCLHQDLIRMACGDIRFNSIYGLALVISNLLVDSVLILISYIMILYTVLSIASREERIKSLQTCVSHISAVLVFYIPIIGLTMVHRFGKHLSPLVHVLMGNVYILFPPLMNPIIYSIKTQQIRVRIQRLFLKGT
Summary of the method: as §1

UniProt E9Q4X7 = target: T9, UniProt E9Q4X7
T9 sequence (whole entry): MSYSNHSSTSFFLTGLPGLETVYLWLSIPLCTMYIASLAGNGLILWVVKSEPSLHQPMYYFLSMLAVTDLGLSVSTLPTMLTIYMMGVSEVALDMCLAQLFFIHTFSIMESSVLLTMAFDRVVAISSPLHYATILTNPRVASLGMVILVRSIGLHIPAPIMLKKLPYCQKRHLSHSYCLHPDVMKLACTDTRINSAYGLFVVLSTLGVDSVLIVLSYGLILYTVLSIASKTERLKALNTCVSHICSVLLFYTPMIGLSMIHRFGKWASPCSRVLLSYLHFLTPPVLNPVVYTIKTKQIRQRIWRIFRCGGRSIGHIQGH
Summary of the method: as §1

UniProt E9Q546 = target: T10, UniProt E9Q546
T10 sequence (whole entry): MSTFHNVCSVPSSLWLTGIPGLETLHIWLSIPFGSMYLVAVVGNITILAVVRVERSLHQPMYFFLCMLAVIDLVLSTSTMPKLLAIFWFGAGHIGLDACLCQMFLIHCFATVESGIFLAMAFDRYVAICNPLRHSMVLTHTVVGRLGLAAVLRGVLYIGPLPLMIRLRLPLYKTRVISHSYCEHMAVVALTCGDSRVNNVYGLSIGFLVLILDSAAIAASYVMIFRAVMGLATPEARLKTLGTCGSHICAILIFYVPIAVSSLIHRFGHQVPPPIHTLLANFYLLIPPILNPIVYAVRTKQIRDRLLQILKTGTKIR
Summary of the method: as §1

UniProt A2ASV2 = target: UniProt A2ASV2
Summary of the method: as §1

UniProt A2AVA9 = target: UniProt A2AVA9
Summary of the method: as §1

UniProt A2AVC3 = target: UniProt A2AVC3
Summary of the method: as §1

UniProt E9PXH6 = target: UniProt E9PXH6
Summary of the method: as §1

UniProt D1MFA5 = target: UniProt D1MFA5
Summary of the method: as §1

Measured: odorant receptor agonist call

CCCCCCC=O
not listed: UniProt A2ASV2 | UniProt A2AVA9 | UniProt A2AVC3 | UniProt E9PXH6 | UniProt D1MFA5
inactive: all other assays above

c1cnccn1
inactive: UniProt A2ATE5 | UniProt A2AVB0 | UniProt E9PVX1 | UniProt E9PZ66 | UniProt E9Q4X7 | UniProt E9Q546

O=C1CCCCC1
inactive: UniProt A2AVB5 | UniProt B2RVX8 | UniProt E9Q546

CC(C)C=O
inactive: UniProt A2ATE5 | UniProt A2AVB0 | UniProt E9PVX1 | UniProt E9PZ66 | UniProt E9Q4X7 | UniProt E9Q546

CCCCCCCCCCC=O
inactive: UniProt E9PXN3

CC(C)=CCCC(C)=CC=O
inactive: UniProt A2ATE5 | UniProt A2AVB0 | UniProt E9PVX1 | UniProt E9PZ66 | UniProt E9Q4X7 | UniProt E9Q546

CC(=O)c1ccccc1
active: UniProt A2AVA9 | UniProt A2AVB5 | UniProt A2AVC3 | UniProt E9PXH6
not listed: UniProt D1MFA5
inactive: all other assays above

CC12C=CCC1C1CCC3CC(=O)CCC3(C)C1CC2 (stereo not drawn)
active: UniProt D1MFA5

CCCCO
inactive: UniProt A2ATE5 | UniProt A2AVB0 | UniProt E9PVX1 | UniProt E9PZ66 | UniProt E9Q4X7 | UniProt E9Q546
